Measurements: PMC10042999
Results are given in words; binding and its absence hold for the method and conditions named. Binding seen in cells or lysates may run through a third protein. A result given as binding can be weak or reduced; the word gives no strength.

By UniProt entry, the sequences of proteins in these tests, tags left out. Where a name states a change or a piece, a line headed by the entry shows the natural chain unless it says otherwise. Chains listed by the source or under a name are the forms on record and can include a tag or linker. Residues count along the entry.
UniProt Q60932: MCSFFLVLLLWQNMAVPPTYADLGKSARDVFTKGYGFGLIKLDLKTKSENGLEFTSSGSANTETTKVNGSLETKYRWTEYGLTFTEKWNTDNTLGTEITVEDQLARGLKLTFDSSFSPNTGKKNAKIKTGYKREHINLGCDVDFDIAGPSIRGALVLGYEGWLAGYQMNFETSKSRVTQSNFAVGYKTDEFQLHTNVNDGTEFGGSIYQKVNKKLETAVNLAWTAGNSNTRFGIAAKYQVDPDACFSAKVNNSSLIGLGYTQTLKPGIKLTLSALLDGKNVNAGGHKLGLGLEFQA
UniProt P38647, residues 47-679: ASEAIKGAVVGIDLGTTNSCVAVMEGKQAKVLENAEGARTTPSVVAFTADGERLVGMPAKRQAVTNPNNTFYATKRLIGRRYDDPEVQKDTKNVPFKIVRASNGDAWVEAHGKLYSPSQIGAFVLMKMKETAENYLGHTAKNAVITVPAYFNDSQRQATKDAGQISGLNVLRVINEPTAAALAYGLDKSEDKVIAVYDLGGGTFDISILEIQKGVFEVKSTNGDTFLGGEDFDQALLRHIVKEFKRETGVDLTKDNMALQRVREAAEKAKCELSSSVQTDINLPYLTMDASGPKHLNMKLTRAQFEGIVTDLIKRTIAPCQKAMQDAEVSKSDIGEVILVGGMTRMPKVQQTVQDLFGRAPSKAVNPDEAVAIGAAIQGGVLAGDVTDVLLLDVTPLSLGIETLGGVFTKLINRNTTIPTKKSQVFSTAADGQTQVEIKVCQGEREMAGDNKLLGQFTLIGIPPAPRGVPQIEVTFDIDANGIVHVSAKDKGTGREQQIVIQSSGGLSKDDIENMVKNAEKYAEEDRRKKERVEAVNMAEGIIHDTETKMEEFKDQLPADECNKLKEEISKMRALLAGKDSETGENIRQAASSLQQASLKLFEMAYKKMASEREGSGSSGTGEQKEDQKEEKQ
Human GRP75 with c-term hemagglutinin (HA) tag, wild type (P38646, residues 47-679): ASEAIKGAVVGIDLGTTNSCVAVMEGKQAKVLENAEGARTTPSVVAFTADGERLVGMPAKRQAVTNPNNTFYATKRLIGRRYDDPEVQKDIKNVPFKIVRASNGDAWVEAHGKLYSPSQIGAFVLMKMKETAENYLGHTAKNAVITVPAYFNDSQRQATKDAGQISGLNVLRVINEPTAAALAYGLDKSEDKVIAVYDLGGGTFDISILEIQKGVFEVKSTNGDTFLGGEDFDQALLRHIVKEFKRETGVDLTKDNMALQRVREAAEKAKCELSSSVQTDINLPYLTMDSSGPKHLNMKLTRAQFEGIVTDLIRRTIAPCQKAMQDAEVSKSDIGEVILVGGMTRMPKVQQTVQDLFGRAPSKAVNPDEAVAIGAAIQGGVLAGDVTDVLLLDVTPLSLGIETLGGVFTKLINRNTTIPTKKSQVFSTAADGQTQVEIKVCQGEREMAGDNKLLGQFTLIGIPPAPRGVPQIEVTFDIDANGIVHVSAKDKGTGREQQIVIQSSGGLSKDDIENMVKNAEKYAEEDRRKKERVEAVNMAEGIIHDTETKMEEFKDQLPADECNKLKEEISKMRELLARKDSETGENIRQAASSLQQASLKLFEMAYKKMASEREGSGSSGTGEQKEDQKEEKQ
Human GRP75 with c-term HA tag, non-phosphorylatable mutant T267-A (P38646, form named): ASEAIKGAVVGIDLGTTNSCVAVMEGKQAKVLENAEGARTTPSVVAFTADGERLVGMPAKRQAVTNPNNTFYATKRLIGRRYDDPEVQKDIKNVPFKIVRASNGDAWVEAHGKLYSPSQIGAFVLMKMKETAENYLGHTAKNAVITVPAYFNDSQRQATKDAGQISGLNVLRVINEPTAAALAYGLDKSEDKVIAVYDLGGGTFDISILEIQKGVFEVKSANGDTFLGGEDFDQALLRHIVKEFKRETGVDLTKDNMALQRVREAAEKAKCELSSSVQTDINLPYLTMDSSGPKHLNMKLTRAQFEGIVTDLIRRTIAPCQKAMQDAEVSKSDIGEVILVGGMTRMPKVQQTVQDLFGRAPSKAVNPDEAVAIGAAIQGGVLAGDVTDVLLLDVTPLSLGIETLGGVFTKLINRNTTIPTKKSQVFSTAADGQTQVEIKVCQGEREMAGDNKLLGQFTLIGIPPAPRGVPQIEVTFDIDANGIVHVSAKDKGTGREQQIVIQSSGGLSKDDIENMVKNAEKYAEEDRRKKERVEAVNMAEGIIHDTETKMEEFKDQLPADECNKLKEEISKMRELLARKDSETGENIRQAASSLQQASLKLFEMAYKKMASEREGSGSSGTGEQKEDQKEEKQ
Human GRP75 with c-term HA tag, non-phosphorylatable mutant S266-A (P38646, form named): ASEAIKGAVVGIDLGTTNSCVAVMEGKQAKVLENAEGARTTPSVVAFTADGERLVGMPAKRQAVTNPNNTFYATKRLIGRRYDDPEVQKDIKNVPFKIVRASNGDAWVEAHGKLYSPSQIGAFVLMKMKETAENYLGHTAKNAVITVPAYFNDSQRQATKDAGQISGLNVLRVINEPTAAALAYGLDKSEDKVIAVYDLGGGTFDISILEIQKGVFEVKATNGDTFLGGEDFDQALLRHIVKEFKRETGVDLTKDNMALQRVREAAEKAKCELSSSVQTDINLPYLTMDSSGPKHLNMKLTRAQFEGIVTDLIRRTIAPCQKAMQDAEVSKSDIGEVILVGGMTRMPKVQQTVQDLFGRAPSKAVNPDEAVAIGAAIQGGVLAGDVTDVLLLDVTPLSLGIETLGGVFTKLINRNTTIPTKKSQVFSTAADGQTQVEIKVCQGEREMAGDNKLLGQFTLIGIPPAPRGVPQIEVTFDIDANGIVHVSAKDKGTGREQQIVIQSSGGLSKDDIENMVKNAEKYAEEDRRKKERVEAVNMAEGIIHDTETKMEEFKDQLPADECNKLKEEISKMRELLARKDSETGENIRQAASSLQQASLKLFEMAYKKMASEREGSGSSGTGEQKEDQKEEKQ
Human GRP75 with c-term HA tag, non-phosphorylatable mutant T120-A (P38646, form named): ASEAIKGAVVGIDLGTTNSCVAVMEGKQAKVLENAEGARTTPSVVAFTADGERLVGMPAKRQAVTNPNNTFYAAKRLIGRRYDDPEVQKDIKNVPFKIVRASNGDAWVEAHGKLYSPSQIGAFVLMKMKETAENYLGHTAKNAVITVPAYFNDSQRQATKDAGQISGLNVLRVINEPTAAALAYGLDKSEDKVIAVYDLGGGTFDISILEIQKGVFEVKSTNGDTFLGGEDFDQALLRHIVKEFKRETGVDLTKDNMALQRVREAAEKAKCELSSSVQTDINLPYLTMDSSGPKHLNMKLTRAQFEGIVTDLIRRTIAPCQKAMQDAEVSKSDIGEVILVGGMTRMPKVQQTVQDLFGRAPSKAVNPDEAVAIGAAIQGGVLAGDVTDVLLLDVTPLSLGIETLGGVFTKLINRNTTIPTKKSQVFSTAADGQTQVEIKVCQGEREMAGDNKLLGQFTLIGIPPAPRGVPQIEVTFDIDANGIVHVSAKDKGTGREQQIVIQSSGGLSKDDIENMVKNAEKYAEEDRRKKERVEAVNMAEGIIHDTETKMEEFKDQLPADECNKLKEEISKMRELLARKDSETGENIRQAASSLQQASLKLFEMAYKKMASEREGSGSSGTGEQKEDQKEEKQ
UniProt P11881: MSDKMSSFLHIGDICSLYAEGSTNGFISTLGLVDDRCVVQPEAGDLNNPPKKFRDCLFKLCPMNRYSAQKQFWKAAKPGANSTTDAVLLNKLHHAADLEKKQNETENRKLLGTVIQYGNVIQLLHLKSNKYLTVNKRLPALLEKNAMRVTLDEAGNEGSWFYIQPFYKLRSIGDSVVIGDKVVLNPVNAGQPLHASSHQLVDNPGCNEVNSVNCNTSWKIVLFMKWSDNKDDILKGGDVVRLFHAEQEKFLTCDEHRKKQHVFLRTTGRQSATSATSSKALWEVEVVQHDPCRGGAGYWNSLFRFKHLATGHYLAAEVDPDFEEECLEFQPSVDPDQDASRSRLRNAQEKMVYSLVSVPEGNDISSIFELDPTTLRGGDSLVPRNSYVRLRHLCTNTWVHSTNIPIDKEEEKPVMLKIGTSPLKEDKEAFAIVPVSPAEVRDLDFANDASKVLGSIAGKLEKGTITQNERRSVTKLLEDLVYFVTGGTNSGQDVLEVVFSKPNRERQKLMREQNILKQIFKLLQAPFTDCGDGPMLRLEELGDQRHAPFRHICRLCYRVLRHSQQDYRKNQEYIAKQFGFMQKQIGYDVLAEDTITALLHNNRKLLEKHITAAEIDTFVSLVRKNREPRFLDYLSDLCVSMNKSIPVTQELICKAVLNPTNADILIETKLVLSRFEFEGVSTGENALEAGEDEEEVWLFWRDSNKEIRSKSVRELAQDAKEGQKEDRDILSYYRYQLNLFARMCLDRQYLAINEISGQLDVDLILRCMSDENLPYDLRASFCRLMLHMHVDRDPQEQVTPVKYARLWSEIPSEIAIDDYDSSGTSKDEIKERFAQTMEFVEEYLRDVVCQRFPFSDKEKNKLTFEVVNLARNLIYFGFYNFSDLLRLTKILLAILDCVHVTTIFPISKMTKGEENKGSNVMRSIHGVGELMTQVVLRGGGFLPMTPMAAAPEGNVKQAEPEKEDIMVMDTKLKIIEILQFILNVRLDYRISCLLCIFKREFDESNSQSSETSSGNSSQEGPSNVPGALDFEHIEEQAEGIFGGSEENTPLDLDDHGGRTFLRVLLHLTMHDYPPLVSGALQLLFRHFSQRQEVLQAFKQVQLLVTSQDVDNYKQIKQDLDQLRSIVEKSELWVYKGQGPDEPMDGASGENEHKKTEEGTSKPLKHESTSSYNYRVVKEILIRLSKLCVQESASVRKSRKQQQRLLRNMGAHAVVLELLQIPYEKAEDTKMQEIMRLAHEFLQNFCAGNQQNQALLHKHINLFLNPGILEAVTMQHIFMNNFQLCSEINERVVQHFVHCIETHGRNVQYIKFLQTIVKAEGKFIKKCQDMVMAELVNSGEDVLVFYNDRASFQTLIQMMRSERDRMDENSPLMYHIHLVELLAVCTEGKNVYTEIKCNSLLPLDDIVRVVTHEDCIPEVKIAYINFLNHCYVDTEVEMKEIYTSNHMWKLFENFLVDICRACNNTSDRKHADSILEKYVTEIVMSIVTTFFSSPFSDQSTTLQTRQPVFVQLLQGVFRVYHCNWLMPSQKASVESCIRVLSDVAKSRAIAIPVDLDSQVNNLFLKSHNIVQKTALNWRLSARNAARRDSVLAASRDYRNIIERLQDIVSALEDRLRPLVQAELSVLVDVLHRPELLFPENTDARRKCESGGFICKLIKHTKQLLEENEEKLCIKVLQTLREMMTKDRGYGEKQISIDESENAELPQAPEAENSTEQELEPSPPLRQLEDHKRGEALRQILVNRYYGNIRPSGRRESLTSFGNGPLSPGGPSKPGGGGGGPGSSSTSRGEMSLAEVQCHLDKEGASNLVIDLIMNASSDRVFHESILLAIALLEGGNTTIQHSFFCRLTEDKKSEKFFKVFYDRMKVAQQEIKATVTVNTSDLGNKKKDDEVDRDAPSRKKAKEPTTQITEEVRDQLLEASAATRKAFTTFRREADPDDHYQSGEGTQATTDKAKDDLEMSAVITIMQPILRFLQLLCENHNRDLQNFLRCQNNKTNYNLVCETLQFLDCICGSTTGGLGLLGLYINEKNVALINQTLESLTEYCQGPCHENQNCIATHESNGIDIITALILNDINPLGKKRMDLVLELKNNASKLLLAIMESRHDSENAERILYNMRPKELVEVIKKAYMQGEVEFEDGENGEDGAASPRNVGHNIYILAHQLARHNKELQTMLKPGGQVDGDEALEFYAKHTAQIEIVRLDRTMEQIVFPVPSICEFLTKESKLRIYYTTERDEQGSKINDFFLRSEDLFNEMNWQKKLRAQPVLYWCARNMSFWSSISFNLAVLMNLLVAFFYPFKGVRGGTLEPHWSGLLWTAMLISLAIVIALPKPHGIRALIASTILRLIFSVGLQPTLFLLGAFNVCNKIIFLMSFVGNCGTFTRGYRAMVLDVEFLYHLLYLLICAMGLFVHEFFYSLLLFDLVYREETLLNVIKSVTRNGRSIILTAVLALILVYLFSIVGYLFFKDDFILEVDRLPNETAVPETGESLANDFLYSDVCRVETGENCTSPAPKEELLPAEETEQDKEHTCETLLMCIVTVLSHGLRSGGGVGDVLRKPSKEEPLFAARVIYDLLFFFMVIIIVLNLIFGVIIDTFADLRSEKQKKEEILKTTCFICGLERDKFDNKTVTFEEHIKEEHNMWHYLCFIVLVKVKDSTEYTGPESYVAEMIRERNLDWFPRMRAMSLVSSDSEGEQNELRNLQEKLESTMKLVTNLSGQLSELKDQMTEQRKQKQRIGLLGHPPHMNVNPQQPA

Experiments:
[1] = molecular target: voltage-dependent anion channel 1 (VDAC1), endogenous mouse (mouse (endogenous in mouse liver, primary mouse hepatocytes and AML12 cells)) (UniProt Q60932); assay: proximity ligation; in situ PLA (Duolink) on fixed, permeabilised primary mouse hepatocytes (Pdk4+/+ and Pdk4-/-), with or without 100 mM EtOH for 24 h; endogenous proteins
[2] = molecular target: voltage-dependent anion channel 1 (VDAC1), endogenous mouse (mouse (endogenous in mouse liver, primary mouse hepatocytes and AML12 cells)) (UniProt Q60932); assay: proximity ligation; in situ PLA (Duolink) on fixed, permeabilised AML12 cells; endogenous proteins, PDK4-FLAG (FLAG antibody) or HA-tagged GRP75 WT/mutants (HA antibody) co-overexpressed with PDK4-FLAG; with or without 100 mM EtOH for 24 h
[3] = molecular target: glucose-regulated protein 75 (GRP75), endogenous mouse (mouse (endogenous in mouse liver, primary mouse hepatocytes and AML12 cells)) (UniProt P38647); assay: proximity ligation; in situ PLA (Duolink) on fixed, permeabilised primary mouse hepatocytes (Pdk4+/+ and Pdk4-/-), with or without 100 mM EtOH for 24 h; endogenous proteins
[4] = molecular target: glucose-regulated protein 75 (GRP75), endogenous mouse (mouse (endogenous in mouse liver, primary mouse hepatocytes and AML12 cells)) (UniProt P38647); assay: proximity ligation; in situ PLA (Duolink) on fixed, permeabilised AML12 cells; endogenous proteins, PDK4-FLAG (FLAG antibody) or HA-tagged GRP75 WT/mutants (HA antibody) co-overexpressed with PDK4-FLAG; with or without 100 mM EtOH for 24 h
[5] = molecular target: glucose-regulated protein 75 (GRP75), endogenous mouse (mouse (endogenous in mouse liver, primary mouse hepatocytes and AML12 cells)) (UniProt P38647); assay: co-IP; IP with GRP75 antibody from liver lysates of control diet (CD) and EtOH diet (ED)-fed mice; lysis buffer 50 mM Tris, 150 mM NaCl, 1% Triton X-100, 1 mM EDTA, 10% glycerol; A/G plus agarose beads overnight at 4 °C; immunoblotting
[6] = molecular target: Human GRP75 with c-term hemagglutinin (HA) tag, wild type (human) (UniProt P38646); assay: co-IP; IP with HA antibody from AML12 cells overexpressing HA-tagged WT or phospho-mutant GRP75, either co-overexpressing PDK4-FLAG (Fig. 3g) or treated with 100 mM EtOH for 24 h (Fig. 4a); immunoblotting of endogenous IP3R1 and VDAC1
[7] = molecular target: Human GRP75 with c-term HA tag, non-phosphorylatable mutant T267-A (human) (UniProt P38646); assay: as above
[8] = molecular target: Human GRP75 with c-term HA tag, non-phosphorylatable mutant S266-A (human) (UniProt P38646); assay: as above
[9] = molecular target: Human GRP75 with c-term HA tag, non-phosphorylatable mutant T120-A (human) (UniProt P38646); assay: as above

Measured: binding

inositol-1-tri-phosphate receptor 1 (IP3R1), endogenous mouse (from UniProt P11881 1-2749)
binds: [1] | [2]

voltage-dependent anion channel 1 (VDAC1), endogenous mouse (from UniProt Q60932)
not listed: [1] | [2]
binds: all other assays above
